Results on two molecules are retold here after paper PMC4098744, “Systematic family‐wide analysis of sodium bicarbonate cotransporter NBCn1/SLC4A7 interactions with PDZ scaffold proteins” (Physiological Reports, 2014).

What all share (assay): peptide or protein array; PDZ filter overlay: 96 Class I PDZ domains spotted on a nylon membrane; overlaid with 100 nmol/L GST/NBCn1 (or GST only) in blot buffer (50 mmol/L NaCl, 2% dry milk, 0.1% Tween 20, 10 mmol/L HEPES; pH 7.4) for 1 h at room temperature; detected with HRP-conjugated anti-GST antibody; done three times; both purified
Assay [1] has as its target T1, syntrophin α1 (PDZ domain on the array) (UniProt Q13424).
T1 sequence: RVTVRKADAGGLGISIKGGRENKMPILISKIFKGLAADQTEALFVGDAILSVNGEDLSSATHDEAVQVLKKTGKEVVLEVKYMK

For assay [2], the target named is T2, syntrophin γ2 (PDZ domain on the array) (UniProt Q9NY99).
T2 sequence: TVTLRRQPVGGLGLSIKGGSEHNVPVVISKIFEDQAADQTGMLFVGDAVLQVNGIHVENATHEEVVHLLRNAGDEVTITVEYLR

The next assay has as its target T3, PDZK1 (PDZ domain 1) (UniProt Q5T2W1).
T3 sequence: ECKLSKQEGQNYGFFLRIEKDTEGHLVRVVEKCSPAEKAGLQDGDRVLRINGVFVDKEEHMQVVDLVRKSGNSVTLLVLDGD

The target of assay [3] is T4, MALS‐1 (PDZ domain on the array) (UniProt O14910).
T4 sequence: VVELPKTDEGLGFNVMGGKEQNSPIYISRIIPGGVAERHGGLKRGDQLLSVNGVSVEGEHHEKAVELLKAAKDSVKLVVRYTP

The next assay concerns the target T5, MUPP1 (PDZ domain 7) (UniProt O75970).
T5 sequence: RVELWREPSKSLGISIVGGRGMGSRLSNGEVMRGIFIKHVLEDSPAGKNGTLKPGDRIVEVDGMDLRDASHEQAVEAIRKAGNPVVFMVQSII

In a further assay the target is T6, NHERF‐1 (PDZ domain 1) (UniProt O14745).
T6 sequence: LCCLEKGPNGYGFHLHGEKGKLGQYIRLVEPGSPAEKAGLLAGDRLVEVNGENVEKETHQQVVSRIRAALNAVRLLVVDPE

In assay [4] the target is T7, syntrophin β2 (PDZ domain on the array) (UniProt Q13425).
T7 sequence: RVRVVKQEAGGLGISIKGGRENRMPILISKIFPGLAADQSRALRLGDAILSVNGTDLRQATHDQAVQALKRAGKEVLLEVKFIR

Assay [5] deals with densin‐180 (PDZ domain on the array).
The next assay addresses MAGI‐3 (PDZ domain 5).

No constants are given. Whether binding was seen depends on the method and setting. For part of these data: A result given as binding can be weak or reduced; the word gives no strength. For part of these data: Where a sequence is shown, tags or fusion partners need not be part of it.

For GST only, the binding result (in assay [1]; in assay [2]; with PDZK1 (PDZ domain 1); in assay [3]; with MUPP1 (PDZ domain 7); with NHERF‐1 (PDZ domain 1)) was “no binding” throughout. In assay [4], the binding result is listed as “no binding”.

B1: GST/NBCn1 fusion protein containing the C‐terminal 26 amino acids of rat NBCn1 (domain or fragment, UniProt Q9R1N3-2 1229-1254, looked up)
chain: PEKPVSVTINFEDEPSKKYMDAETSL
notes: NBCn1 (SLC4A7), rat, the C-terminal 26 amino acids; also called C‐terminal domain of NBCn1 fused to GST; source: prepared as described previously (Lee et al. 2012)
Consider B1, for which the results for the binding result (in [5]; with MAGI‐3 (PDZ domain 5)) were “binds weakly” and “binds”, respectively.
